This is an account of results in patent US20220120732A1 (Ramot at Tel-Aviv University Ltd., priority 2019, published 2022).

Strings that start with PEPTIDE1 are HELM notation: dots part the residues, brackets hold end groups and non-standard residues. One purity is given for all peptides; the source may state it once.

The data set can be described thus: peptide synthesis. The settings on record: whole synthesis.

“PEPTIDE1{C.G.H.H.L.L.R.P.R.R.R.K.R.P.H.S.I.P.T.P.I.L.I.F.R.S.P}|PEPTIDE2{C.G.H.H.L.L.R.P.R.R.R.K.R.P.H.S.I.P.T.P.I.L.I.F.R.S.P}$PEPTIDE1,PEPTIDE2,1:R3-1:R3$$$V2.0”: the “purity (crude or final not stated)” value is 97%.
